The values that follow come from the supplement of paper PMC12889115.

This is one part of the list. These are raw signals, not scaled to a control.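 In the initial screen, polymyxin B was used at a concentration that permeabilizes Salmonella's outer membrane but not its inner membrane. Maximum growth was set by DMSO wells with or without polymyxin B. Since plates varied, data were ranked per plate, and compounds giving the lowest OD600 advanced as hits.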

For the experiment, the system named is Salmonella enterica serovar Typhimurium SL1344. The experiment is described as follows: bacterial growth OD600 after 18 h with compound and polymyxin B; higher = more bacterial growth (less inhibition). The following applies: 50 µM, Mueller-Hinton broth.

As to `COc1ccc2c(c1)SC(c1ccc3c(c1)OCO3)CCN2Cc1ccc2ncccc2c1` (stereo not given), the “bacterial growth OD600” value (polymyxin B 0.75 µg/mL) is 0.024.

In the case of `COC(=O)CC1C(=O)NCCN1Cc1nc(-c2cc3c(cc2Cl)OCO3)oc1C` (stereo not given), the “bacterial growth OD600” value (polymyxin B 1 µg/mL) was found to be 0.851.

Turning to `O=C(CCC1CCCN(C(=O)CCN2CCCCO2)C1)N1CCN(c2ccccn2)CC1` (stereo not given), under “polymyxin B 1 µg/mL”, the “bacterial growth OD600” value was 1.03.

Take `Cc1oc(-c2cc3c(cc2Cl)OCO3)nc1CN(C)Cc1ccc(C(F)(F)F)cc1`: the “bacterial growth OD600” value (polymyxin B 1 µg/mL) came to 0.948.

Consider `C=CCOc1cccc(C(=O)N2CCC(Cc3ccc(OC)cc3)(C(=O)OCC)CC2)c1`, for which the “bacterial growth OD600” value (polymyxin B 0.75 µg/mL) was found to be 0.472.

As for `O=C(Cn1cncn1)NCc1cccnc1Oc1ccc(F)c(F)c1`, for the setting “polymyxin B 0.75 µg/mL”, the “bacterial growth OD600” value stood at 0.849.

Take `Cc1ccnn1CCC(=O)NC1CC(=O)N(Cc2ccc(F)cc2)C1` (stereo not given): the “bacterial growth OD600” value (polymyxin B 1 µg/mL) stood at 0.908.

With `O=C(c1coc(COc2cccc(C(F)(F)F)c2)n1)N1CCOCC1`, for the setting “polymyxin B 1 µg/mL”, the “bacterial growth OD600” value is 0.895.

Turning to `C[C@@H]1CN(C2(C(=O)N3CCC(CCO)CC3)Cc3ccccc3C2)C[C@H](C)O1`, under “polymyxin B 0.75 µg/mL”, the “bacterial growth OD600” value turned out to be 0.658.

For the compound `COc1ccc(CNC(=O)CCC2CCCN(Cc3cccc(C(C)=O)c3)C2)c(OC)c1` (stereo not given), the “bacterial growth OD600” value (polymyxin B 1 µg/mL) amounted to 0.893.

Consider `CCOCCCNC1CCN(c2ccc(NC(=O)CCCCc3ccccc3)cc2)CC1`, for which, under “polymyxin B 0.75 µg/mL”, the “bacterial growth OD600” value was determined as 0.735.

Turning to `O=C(c1ccc(N2CCCC(CO)C2)nc1)N1CCC(CCn2cccn2)CC1` (stereo not given), the “bacterial growth OD600” value (polymyxin B 0.75 µg/mL) amounted to 0.984.

As for `CCCCc1nc(CN2CCc3onc(-c4cccc(F)c4)c3C2)c[nH]1`, the “bacterial growth OD600” value (polymyxin B 0.75 µg/mL) was found to be 0.558.

As to `COc1cc(OC)cc(C(=O)NCC2CCCN(C(=O)C3=C(C)OCCO3)C2)c1` (stereo not given), the “bacterial growth OD600” value (polymyxin B 1 µg/mL) is 0.807.

Turning to `COC(=O)c1ccc(CN2CCCC(C(=O)c3ccc(OC)c(F)c3)C2)cc1` (stereo not given), under “polymyxin B 1 µg/mL”, the “bacterial growth OD600” value was 0.55.

For the compound `CN(CCc1nc2cc(F)ccc2[nH]1)C(=O)Cn1nnnc1CN1CCCCCC1`, the “bacterial growth OD600” value (polymyxin B 0.75 µg/mL) was found to be 0.815.

`O=C(NC1CCCCC1)c1cn(C2CC2)cc(C(=O)N2CCOc3ccc(Cl)cc3C2)c1=O`: the “bacterial growth OD600” value (polymyxin B 0.75 µg/mL) stood at 0.653.

In the case of `Cc1n[nH]cc1C(=O)N1CCC(C2CCN(c3ncccn3)CC2)C1` (stereo not given), the “bacterial growth OD600” value (polymyxin B 0.75 µg/mL) is 0.948.

In the case of `COc1ccc(OC)c(C2CCN(C(=O)c3ccc4oc(C(C)C)nc4c3)C2)c1` (stereo not given), the “bacterial growth OD600” value (polymyxin B 0.75 µg/mL) was 0.575.

Regarding `CO[C@H]1[C@H](NC(=O)c2ccncc2)c2ccccc2C12CCN(C(=O)c1cc3cc(C)ccc3[nH]1)CC2`, the “bacterial growth OD600” value (polymyxin B 0.75 µg/mL) was 0.016.
